No constants are given. Whether binding was seen depends on the method and setting. For part of these data: Tags and fused reporters may be left off the sequences shown.
Assays:
Assay in all cases: SEC; analytical UPLC, Zenix SEC-150, 1.0 mL/min, proteins at 19 μM in 20 mM HEPES pH 7.5, 150 mM NaCl, without DTT; mixtures kept on ice for at least 30 min; compared with gel filtration standards; both purified
[1] = target: T1, His6TraW (E. coli F plasmid) (UniProt P18472)
T1 sequence: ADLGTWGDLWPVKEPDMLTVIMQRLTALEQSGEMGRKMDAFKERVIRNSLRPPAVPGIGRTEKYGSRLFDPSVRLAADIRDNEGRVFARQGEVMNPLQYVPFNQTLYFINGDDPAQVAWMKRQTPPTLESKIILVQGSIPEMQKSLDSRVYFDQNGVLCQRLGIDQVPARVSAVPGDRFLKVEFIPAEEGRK

[2] = target: T2, His6ΔTraW (aa 51–210) (E. coli F plasmid) (UniProt P18472)
T2 sequence: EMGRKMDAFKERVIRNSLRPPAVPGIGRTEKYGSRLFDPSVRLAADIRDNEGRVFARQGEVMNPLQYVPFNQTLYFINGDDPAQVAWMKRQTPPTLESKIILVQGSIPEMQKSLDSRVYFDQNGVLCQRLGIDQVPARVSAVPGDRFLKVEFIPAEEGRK

[3] = target: TrbBWT (E. coli F plasmid) (UniProt P18035)

binding [1]: no binding (tested: 19 μM)
binding [2]: no binding (tested: 19 μM)
binding [3]: no binding (tested: 19 μM)
B1: TrbBWT (enzyme, UniProt P18035 23-181)
chain: RDEIERLWNPQGMATQPAQPAAGTSARTAKPAPRWFRLSNGRQVNLADWKVVLFMQGHCPYCHQFDPVLKQLAQQYGFSVFSYTLDGQGDTAFPEALPVPPDVMQTFFPNIPVATPTTFLVNVNTLEALPLLQGATDAAGFMARVDTVLQMYGGKKGAK
